PubChem BioAssay AID1259306, Sanger Institute – 2017
Shown is a random part of 794 reagents tested. 11 of them (1.4%) were called active. 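Calls reflect knock-down alone; synergy scores play no part, so knock-downs synergising with a drug can be called no change.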 Viability is capped at 1. Further read-outs or replicates are left out here. The record does not give: the amount of reagent, the time to read-out.

Purpose: 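Kinases needed for viability and knock-downs that synergise with BYL719, cetuximab or trametinib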 (primary screen)
Cells: human SNU-C5 colorectal cancer cells
Reagents: siRNA pool against human genes
Challenge: DMSO vehicle alone, or one anchor drug: BYL719 at 1 µM, cetuximab at 5 µg/ml or trametinib at 10 nM, given 24 h into the assay
Measured: 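Viability versus non-targeting pool averaged across replicates, given as fraction and robust z-score, and synergy scores for BYL719, cetuximab or trametinib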
Scale: robust z-score, knock-down alone and viability, knock-down alone: higher = more viable cells
Call rule: 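Called essential when the robust z-score for knock-down alone is below -3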
Meaning of the calls: active = essential (knock-down alone); inactive = no change alone

PRKCD
- robust z-score, knock-down alone: -0.333
- viability, knock-down alone: 0.818
- call: inactive

FN3KRP
- robust z-score, knock-down alone: -0.973
- viability, knock-down alone: 0.73
- call: inactive

RNASEL
- robust z-score, knock-down alone: 0.989
- viability, knock-down alone: 1
- call: inactive

PFKFB2
- robust z-score, knock-down alone: 0.175
- viability, knock-down alone: 0.888
- call: inactive

PIP5K1B
- robust z-score, knock-down alone: 0.989
- viability, knock-down alone: 1
- call: inactive

LCK
- robust z-score, knock-down alone: 0.888
- viability, knock-down alone: 0.986
- call: inactive

CSNK1G3
- robust z-score, knock-down alone: -0.303
- viability, knock-down alone: 0.822
- call: inactive

STK32C
- robust z-score, knock-down alone: 0.0697
- viability, knock-down alone: 0.873
- call: inactive

CKS2
- robust z-score, knock-down alone: 0.989
- viability, knock-down alone: 1
- call: inactive

BMX
- robust z-score, knock-down alone: -0.218
- viability, knock-down alone: 0.834
- call: inactive

DCLK2
- robust z-score, knock-down alone: -2.09
- viability, knock-down alone: 0.576
- call: inactive

2 entries from above, showing only “viability, knock-down alone”.
STK32C = 0.873
CKS2 = 1

The list goes on.
AKT1
- robust z-score, knock-down alone: 0.887
- viability, knock-down alone: 0.986
- call: inactive

PKLR
- robust z-score, knock-down alone: -0.92
- viability, knock-down alone: 0.737
- call: inactive

LATS2
- robust z-score, knock-down alone: 0.713
- viability, knock-down alone: 0.962
- call: inactive

PRKD2
- robust z-score, knock-down alone: -0.0396
- viability, knock-down alone: 0.858
- call: inactive

PDIK1L
- robust z-score, knock-down alone: 0.416
- viability, knock-down alone: 0.921
- call: inactive

PIM3
- robust z-score, knock-down alone: 0.677
- viability, knock-down alone: 0.957
- call: inactive

TCF7L2
- robust z-score, knock-down alone: 0.806
- viability, knock-down alone: 0.975
- call: inactive

PAK1
- robust z-score, knock-down alone: 0.989
- viability, knock-down alone: 1
- call: inactive
